The values that follow come from article PMC5385568.

Amino acid sequences for entries named in this document (tags omitted).
UniProt O08788: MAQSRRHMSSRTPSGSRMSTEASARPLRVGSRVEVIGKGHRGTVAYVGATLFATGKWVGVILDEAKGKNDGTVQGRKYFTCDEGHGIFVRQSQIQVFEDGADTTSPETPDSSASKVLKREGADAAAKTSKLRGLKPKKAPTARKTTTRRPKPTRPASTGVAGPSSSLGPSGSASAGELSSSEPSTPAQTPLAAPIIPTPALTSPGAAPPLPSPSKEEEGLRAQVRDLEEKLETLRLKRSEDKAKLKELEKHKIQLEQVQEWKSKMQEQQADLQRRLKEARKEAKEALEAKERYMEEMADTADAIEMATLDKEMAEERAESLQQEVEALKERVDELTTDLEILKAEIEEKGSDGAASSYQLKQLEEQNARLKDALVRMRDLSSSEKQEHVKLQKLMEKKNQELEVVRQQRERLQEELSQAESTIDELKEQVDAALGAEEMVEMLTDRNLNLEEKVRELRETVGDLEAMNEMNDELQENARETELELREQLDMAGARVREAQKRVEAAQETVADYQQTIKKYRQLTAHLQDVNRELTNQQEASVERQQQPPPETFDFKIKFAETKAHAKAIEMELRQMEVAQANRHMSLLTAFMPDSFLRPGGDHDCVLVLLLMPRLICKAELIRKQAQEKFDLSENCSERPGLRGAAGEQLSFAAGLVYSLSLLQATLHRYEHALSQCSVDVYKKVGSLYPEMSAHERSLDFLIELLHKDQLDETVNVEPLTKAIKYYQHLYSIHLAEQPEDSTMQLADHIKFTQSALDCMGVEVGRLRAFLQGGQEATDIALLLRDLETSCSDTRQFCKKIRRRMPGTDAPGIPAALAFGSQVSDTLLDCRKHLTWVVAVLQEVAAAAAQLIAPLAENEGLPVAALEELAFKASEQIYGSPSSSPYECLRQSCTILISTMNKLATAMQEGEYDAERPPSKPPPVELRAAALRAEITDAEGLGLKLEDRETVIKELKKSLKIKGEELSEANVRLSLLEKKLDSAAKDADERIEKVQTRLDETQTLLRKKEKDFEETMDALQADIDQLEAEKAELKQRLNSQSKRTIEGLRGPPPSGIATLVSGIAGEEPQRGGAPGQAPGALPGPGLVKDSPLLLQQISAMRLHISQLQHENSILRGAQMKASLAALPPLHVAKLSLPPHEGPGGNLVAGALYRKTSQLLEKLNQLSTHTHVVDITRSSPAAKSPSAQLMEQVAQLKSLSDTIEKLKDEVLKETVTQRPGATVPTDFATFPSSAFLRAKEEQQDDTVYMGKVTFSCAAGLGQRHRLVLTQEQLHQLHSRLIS

Results are given in words; binding and its absence hold for the method and conditions named. In cells and extracts the contact can be indirect. Some binding calls cover weakened binding; strength is not graded here. Sequences can lack the tags named with a protein.

For this experiment, the target named is T1, GST-tagged human Stonin 2 (amino acids 1–555) (human) (UniProt Q8WXE9).
T1 sequence: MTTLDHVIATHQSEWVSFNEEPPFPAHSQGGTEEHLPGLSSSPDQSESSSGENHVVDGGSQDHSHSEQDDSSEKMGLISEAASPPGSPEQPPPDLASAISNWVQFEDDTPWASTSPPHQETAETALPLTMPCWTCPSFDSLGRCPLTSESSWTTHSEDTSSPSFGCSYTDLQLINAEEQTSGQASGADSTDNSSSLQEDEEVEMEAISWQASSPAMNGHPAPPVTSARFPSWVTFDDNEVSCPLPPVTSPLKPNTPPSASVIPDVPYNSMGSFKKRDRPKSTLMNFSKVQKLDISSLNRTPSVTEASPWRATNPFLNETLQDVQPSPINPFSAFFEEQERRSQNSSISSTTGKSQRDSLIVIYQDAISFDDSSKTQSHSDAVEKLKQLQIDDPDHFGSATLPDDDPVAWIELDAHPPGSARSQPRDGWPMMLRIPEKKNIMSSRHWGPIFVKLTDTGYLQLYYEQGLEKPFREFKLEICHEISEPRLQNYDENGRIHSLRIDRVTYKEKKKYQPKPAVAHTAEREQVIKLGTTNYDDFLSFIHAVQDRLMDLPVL
Put plainly: pull-down; 50 μg recombinant purified GST fusion protein as bait with detergent-extracted mouse brain lysate; 10 mM HEPES pH 7.4, 150 mM NaCl, 2 mM DTT, 0.05% Triton X-100; 2 h at 4 °C; immunoblotting; only the target purified.

For “endogenous p150^Glued subunit of dynactin (mouse brain) (from UniProt O08788 1-1281)”, the binding entry is “binds”.
